Measurements from PMC6936093.
These are yes or no findings as the source states them, for the method shown. In cells and extracts the contact can be indirect. Some binding calls cover weakened binding; strength is not graded here. Tags and fused reporters may be left off the sequences shown.

Amino acid sequences for entries named in this document (tags omitted).
UniProt Q96DH6: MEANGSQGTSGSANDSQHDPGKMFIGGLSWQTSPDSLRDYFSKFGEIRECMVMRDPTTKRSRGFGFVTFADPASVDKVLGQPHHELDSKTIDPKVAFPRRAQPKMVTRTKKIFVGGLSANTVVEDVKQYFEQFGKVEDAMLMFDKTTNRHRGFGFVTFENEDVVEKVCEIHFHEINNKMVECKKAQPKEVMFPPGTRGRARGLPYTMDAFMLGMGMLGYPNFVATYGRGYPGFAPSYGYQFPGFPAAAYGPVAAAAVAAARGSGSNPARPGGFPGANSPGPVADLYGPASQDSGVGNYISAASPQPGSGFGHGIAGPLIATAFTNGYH

Target: Musashi2 (MSI2) (human (endogenous in SNU-398)) (UniProt Q96DH6)
Test: co-IP; SNU-398 cells (sorted CD44v6+ and CD44v6-; with MSI2 shRNA1, Lv MSI2 or control virus) lysed in RIPA buffer with protease inhibitors; precipitated with anti-MSI2 antibody on Protein A/G PLUS-Agarose, immunoblotted for LFNG

binding: binds
B1: Lunatic fringe (LFNG), LFNG O-fucosylpeptide 3-beta-N-acetylglucosaminyltransferase (enzyme, UniProt Q8NES3 1-379)
chain: MLKRCGRRLLLALAGALLACLLVLTADPPPPPLPAERGRRALRSLAGPAGAAPAPGLGAAAAAPGALVRDVHSLSEYFSLLTRARRDAGPPPGAAPRPADGHPRPLAEPLAPRDVFIAVKTTKKFHRARLDLLLETWISRHKEMTFIFTDGEDEALARHTGNVVITNCSAAHSRQALSCKMAVEYDRFIESGRKWFCHVDDDNYVNLRALLRLLASYPHTRDVYVGKPSLDRPIQAMERVSENKVRPVHFWFATGGAGFCISRGLALKMSPWASGGHFMNTAERIRLPDDCTIGYIVEALLGVPLIRSGLFHSHLENLQQVPTSELHEQVTLSYGMFENKRNAVHVKGPFSVEADPSRFRSIHCHLYPDTPWCPRTAIF
